Measurements as given in PubChem BioAssay AID504467 (National Center for Advancing Translational Sciences (NCATS), 2011).
The whole screen tested about 330,000 compounds, of which about 7,700 (2.3%) were called active. The inconclusive results got no clear call from the source; some entries with a clear call stand among them for comparison. Calls follow the shape of the dose curve; as a rule, active = well fitted inhibition curve with a large enough effect; inconclusive = small, poorly fitted or top-dose-only effect, or effect the other way; inactive = flat fitted curve, though single readings scatter. Where the call is inconclusive, the potency comes from a doubtful curve fit.

Assay: qHTS screen for small molecules that inhibit ELG1-dependent DNA repair in human embryonic kidney (HEK293T) cells expressing luciferase-tagged ELG1; also: nearly all actives have a fitted effect of over 55% in size
Details: HEK293T ELG1-luciferase reporter, luminescence, 16 h, DNA damage induced by 5-fluorouridine; series mostly up to 46.1 µM
Outline: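 Luminescence from the luciferase reporter, measured 30 min after ONE-Glo reagent at room temperature, was the read-out. Beforehand, 2,000 cells per well were exposed for 16 hr at 37 °C to 5-fluorouridine together with compound or vehicle.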
Potency is read from the fitted curve at half-maximal effect.

SMILES | Potency
COc1ccc(-c2nn(-c3ccccc3)cc2/C=N/n2cnnc2)cc1OC | inconclusive: 10 µM [inhibitor, partial curve, poor fit]
CS(=O)(=O)c1ccc2c(c1)sc1nc(=O)c(/C=C3/C=CC(=O)C(O)=C3)c(N)n12 | inconclusive: 13 µM [activator, partial curve]
C/C(=N\Nc1ccc([N+](=O)[O-])cc1)c1ccc(-n2nncc2C)cc1 | active: 7.31 µM
COc1ccc(Nc2nc(-c3ccccc3)nc3ccccc23)cc1S(=O)(=O)N1CCOCC1 | active: 8.2 µM
O=C(Cc1ccccc1[N+](=O)[O-])Nc1cccc(S(=O)(=O)NC2=NCCCCC2)c1 | inconclusive: 1.3 µM [inhibitor, partial curve, poor fit]
CCOc1ccccc1-n1nnnc1SCC(=O)Nc1cc2oc3ccccc3c2cc1OC | inconclusive: 8.2 µM [inhibitor, partial curve, poor fit]
c1ccc(-c2noc(-c3cccc4ccccc34)n2)nc1 | inconclusive: 1.46 µM [activator, full curve]
COc1ccc(NS(=O)(=O)c2ccc(N3CCOCC3)c(N)c2)cc1 | inconclusive: 11.2 µM [activator, single point]
O=C(Nc1cccc(C(=O)N2CCN(c3ccc(F)cc3)CC2)c1)c1ccccc1 | inconclusive: 23.1 µM [inhibitor, single point]
CCCCCc1cc(=O)oc2c(C(CCN(CC)CC)c3ccc(OC)cc3)c(OC)cc(OC)c12 (stereo not given) | inactive
O=C(CSc1cccc2cccc(Cl)c12)NCc1cccs1 | inactive
Cc1c(C(=O)N(Cc2ccc(Cl)cc2)C2CCS(=O)(=O)C2)oc2ccccc12 (stereo not given) | inconclusive: 18.3 µM [inhibitor, partial curve, poor fit]
Cc1ccc(NC(=O)CCc2nnc3ccc(N4CCC(C)CC4)nn23)nc1 | active: 2.91 µM
C=CCc1ccc(OCCn2cccc2C=O)c(OC)c1 | inconclusive: 18.4 µM [activator, partial curve]
CCCOc1ccc2c(=O)c(-c3cc(C(=O)OC)oc3C)c(C)oc2c1 | inconclusive: 29.1 µM [inhibitor, single point]
Cc1ccc(/C=N/NC(=O)c2cccc(S(=O)(=O)Nc3cccc(Cl)c3)c2)o1 | inactive
O=[N+]([O-])c1ccccc1CNc1ccc(F)c(Cl)c1 | inconclusive: 18.4 µM [activator, partial curve, poor fit]
COC(=O)N/N=C/c1cn(Cc2ccc(F)cc2)c2ccccc12 | inactive
O=C(NCc1ccccc1)C(c1ccccc1)N(Cc1cccs1)C(=O)c1cnccn1 (stereo not given) | inconclusive: 16.4 µM [inhibitor, partial curve]
CCOCC(O)CNc1ccccc1 (stereo not given) | inactive
COc1ccc(CNc2nc3ccccc3n2C)c(O)c1 | inconclusive: 8.2 µM [activator, partial curve]
CC(C)CCNC(=O)C1CCN(S(=O)(=O)c2ccc3c(c2)CC(C)N3C(=O)C2CCC2)CC1 (stereo not given) | inconclusive: 18.3 µM [inhibitor, partial curve, poor fit]
CCn1nnnc1SCC(=O)Nc1nc2ccc(OC)cc2s1 | inconclusive: 1.16 µM [inhibitor, single point]
COc1cc(SC#N)ccc1N=Cc1c(C)[nH]n(-c2ccc(C)c(C)c2)c1=O | inconclusive: 0.731 µM [inhibitor, full curve, poor fit]

SMILES | Potency
CCCC(=O)Nc1sc(Cc2ccccc2)c(C)c1C(N)=O | inconclusive: 20.6 µM [inhibitor, single point]
O=C(Nc1ccc(F)cc1F)NC1CCCCCCC1 | inconclusive: 16.4 µM [activator, partial curve]
CCOc1ccc(-c2cnc3n2CCCCC3)cc1 | inactive
COc1cc2c(cc1OC)C(c1cc3ccccc3oc1=O)=NC(C)(C)C2 | inconclusive: 29.1 µM [inhibitor, single point]
Cc1ccc(Cn2c(CN3CCN(C(=O)c4ccco4)CC3)nc3c2c(=O)n(C)c(=O)n3C)cc1 | inconclusive: 29.1 µM [inhibitor, single point]
N#Cc1nc(-c2cccc(Cl)c2)oc1NCc1cccnc1 | inactive
O=C(N/N=C/c1ccc2c(c1)OCO2)c1ccc(COc2cccc3cccnc23)cc1 | active: 18.3 µM
Clc1cccc(CNc2nc(-c3cccnc3)nc3ccccc23)c1 | inconclusive: 20.6 µM [inhibitor, partial curve, poor fit]
COc1ccc(NC(=O)CSc2nnc(Cc3ccccc3)c(=O)n2N)cc1OC | inactive
O=C(NNC(=O)C1CC=CCC1C(=O)O)c1ccc(Cl)cc1 (stereo not given) | inactive
O=C(O)c1ccccc1-c1nc2ccccc2[nH]1 | inconclusive: 29.1 µM [activator, single point]
COc1ccc(NC(=O)C2CCCO2)cc1 (stereo not given) | inconclusive: 13 µM [activator, partial curve, poor fit]
CCN(CC)S(=O)(=O)c1ccc(N=Nc2c(C)[nH]n(C(N)=S)c2=O)cc1 | inconclusive: 20.6 µM [activator, partial curve]
Cc1cccc(NC(=S)N(CCN2CCOCC2)Cc2cc3cc4c(cc3[nH]c2=O)OCCO4)c1 | inconclusive: 18.3 µM [inhibitor, single point]
CCOC(=O)N1CCN(Cc2nc3c(c(=O)n(C)c(=O)n3C)n2Cc2ccccc2)CC1 | active: 10.3 µM
COc1ccc(C(=O)NCC(=O)N/N=C/c2ccc(C)o2)cc1OC | inactive
COc1ccc(C(C(=O)NC2CCCC2)N(C(=O)c2ccco2)c2cc3c(cc2C(C)=O)OCO3)cc1OC (stereo not given) | inactive
COc1ccc(-n2c(=O)c(CCC(=O)NCCc3ccccc3F)nc3ccccc32)cc1 | inconclusive: 29.1 µM [inhibitor, single point]
CCC(C)n1cnc2c(c1=O)c1nc3ccccc3nc1n2Cc1ccccc1OC (stereo not given) | inconclusive: 1.3 µM [inhibitor, partial curve, poor fit]
COc1cc(-c2nnc(NC(=O)CCS(=O)(=O)c3ccc(F)cc3)o2)cc(OC)c1OC | inactive
CCOC(=O)C(C(=O)OCC)C1OC(=O)c2cc3c(cc21)C(=O)OC3C(C(=O)OCC)C(=O)OCC (stereo not given) | inactive
C=CCC[C@@H](Cc1ccc(F)cc1)C(=O)OC[C@@H](C)NC(=O)[C@H](CC=C)CC(=O)N(CCO)Cc1ccccc1 | inactive
COc1ccc(-c2cc(C(F)(F)F)nc(N3CCCCC3)n2)cc1OC | inactive
Cc1cccc(NC2=NC3(CCCCC3)N=C(N)N2)c1C | inactive

An excerpt of these results, in CSV form:
SMILES,Potency
O=C(N/N=C/c1ccc2c(c1)OCO2)c1ccc(COc2cccc3cccnc23)cc1,active: 18.3 µM
Clc1cccc(CNc2nc(-c3cccnc3)nc3ccccc23)c1,"inconclusive: 20.6 µM [inhibitor, partial curve, poor fit]"
COc1ccc(NC(=O)CSc2nnc(Cc3ccccc3)c(=O)n2N)cc1OC,inactive
COc1ccc(C(=O)NCC(=O)N/N=C/c2ccc(C)o2)cc1OC,inactive

(cont.)

SMILES | Potency
Cc1ccc(S(=O)(=O)Nc2nc3ccccc3nc2Nc2cccc(S(=O)(=O)N3CCCC3)c2)cc1 | active: 20.6 µM
Cc1c(C(=O)OC(C)C)sc(NC(=O)C2CCCO2)c1C(=O)OC(C)C (stereo not given) | inconclusive: 20.6 µM [inhibitor, single point]
O=C(OCC(=O)N1CCC(Cc2ccccc2)CC1)c1cc(Br)ccc1O | inconclusive: 29.1 µM [inhibitor, partial curve, poor fit]
COc1cccc(N(CC(=O)NC2CCCCC2)C(=O)c2snc(C(N)=O)c2N)c1 | inactive
Cc1cc(=O)oc2c(CN3CCCC3)c(O)c(Cl)cc12 | inactive
O=C1CCC(=O)N1c1ccc(-c2nc3ccccc3s2)cc1 | inconclusive: 1.83 µM [activator, partial curve]
O=[N+]([O-])c1ccc2nc(NCCCO)nc(-c3ccccc3)c2c1 | inconclusive: 23.1 µM [inhibitor, partial curve, poor fit]
COc1c(/C=N/NC(N)=S)c(C)nn1-c1ccccc1 | inactive
COCCCNc1ncnc2ccc(C)cc12 | inconclusive: 25.9 µM [inhibitor, partial curve, poor fit]
COc1ccccc1NC(=O)CSc1nnc(CCC(=O)Nc2ccccc2F)n1C | inactive
c1ccc2c3nnc4n(c-3nc2c1)CCCS4 | inconclusive: 20.6 µM [activator, single point]
CC1CN(C(=O)CCC(=O)N2CCN(c3cccc(C(F)(F)F)c3)CC2)c2ccccc2O1 (stereo not given) | inactive
Cc1ncoc1C(=O)N1CCCC(C(=O)c2ccc(Oc3ccccc3)cc2)C1 (stereo not given) | inconclusive: 18.3 µM [inhibitor, partial curve, poor fit]
Cc1cccc(N(CC(=O)NC2CCCC2)C(=O)c2nsc(Cl)c2Cl)c1C | inconclusive: 32.6 µM [inhibitor, partial curve, poor fit]
O=C(COc1ccccc1Cl)NC(=O)NC1CCCCC1 | inconclusive: 10.3 µM [activator, single point]
O=C(NOCc1ccccc1)c1cccc([N+](=O)[O-])c1 | inconclusive: 18.3 µM [activator, single point]
Nc1ccc2nc(-c3cccc(-c4nc5ccc(N)cc5[nH]4)c3)[nH]c2c1 | inactive
CCCCn1c(NCc2ccncc2)nc2ccccc21 | inactive
CSc1cccc(NC(=S)NC(=O)CCc2ccccc2)c1 | inconclusive: 32.6 µM [activator, partial curve, poor fit]
CCc1ccccc1Nc1nn2c(=O)c3ccc(C(=O)NCc4ccccn4)cc3nc2s1 | inconclusive: 0.651 µM [inhibitor, full curve]
COc1cccc2sc(/N=C/N(C)C)nc12 | inconclusive: 18.3 µM [activator, single point]
O=C1CCc2cc(S(=O)(=O)Nc3ccccc3)cc3c2N1CC3 | inconclusive: 1.16 µM [inhibitor, single point]

Laid out differently: entries from further up
SMILES,Potency
Cc1cc(=O)oc2c(CN3CCCC3)c(O)c(Cl)cc12,inactive
O=C1CCC(=O)N1c1ccc(-c2nc3ccccc3s2)cc1,"inconclusive: 1.83 µM [activator, partial curve]"
